Data from PMC7982613.
These are yes or no findings as the source states them, for the method shown. In cells and extracts the contact can be indirect. Some results given as binding are weak or reduced against the parent protein; the word gives no strength.

Sequences of proteins named here, by UniProt entry; tags and fusion partners are left off.
UniProt O43524: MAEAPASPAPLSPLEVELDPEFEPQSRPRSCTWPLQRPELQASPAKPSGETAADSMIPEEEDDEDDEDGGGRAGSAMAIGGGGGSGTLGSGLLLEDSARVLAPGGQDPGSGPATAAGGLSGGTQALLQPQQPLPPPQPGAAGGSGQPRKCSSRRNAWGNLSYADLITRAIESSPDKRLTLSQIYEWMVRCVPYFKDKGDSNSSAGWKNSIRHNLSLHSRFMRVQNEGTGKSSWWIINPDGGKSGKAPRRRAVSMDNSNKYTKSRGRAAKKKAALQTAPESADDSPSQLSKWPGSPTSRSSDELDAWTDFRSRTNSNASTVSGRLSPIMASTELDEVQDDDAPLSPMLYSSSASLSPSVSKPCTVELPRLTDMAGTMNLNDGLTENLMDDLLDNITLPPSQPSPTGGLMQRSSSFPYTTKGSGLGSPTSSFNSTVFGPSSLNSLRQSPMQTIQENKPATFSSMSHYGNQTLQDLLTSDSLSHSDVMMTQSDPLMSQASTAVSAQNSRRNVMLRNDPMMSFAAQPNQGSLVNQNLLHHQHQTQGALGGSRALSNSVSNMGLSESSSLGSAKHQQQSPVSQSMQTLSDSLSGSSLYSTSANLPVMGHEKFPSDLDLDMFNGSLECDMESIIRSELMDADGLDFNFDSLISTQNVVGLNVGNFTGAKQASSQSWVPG
UniProt P84022: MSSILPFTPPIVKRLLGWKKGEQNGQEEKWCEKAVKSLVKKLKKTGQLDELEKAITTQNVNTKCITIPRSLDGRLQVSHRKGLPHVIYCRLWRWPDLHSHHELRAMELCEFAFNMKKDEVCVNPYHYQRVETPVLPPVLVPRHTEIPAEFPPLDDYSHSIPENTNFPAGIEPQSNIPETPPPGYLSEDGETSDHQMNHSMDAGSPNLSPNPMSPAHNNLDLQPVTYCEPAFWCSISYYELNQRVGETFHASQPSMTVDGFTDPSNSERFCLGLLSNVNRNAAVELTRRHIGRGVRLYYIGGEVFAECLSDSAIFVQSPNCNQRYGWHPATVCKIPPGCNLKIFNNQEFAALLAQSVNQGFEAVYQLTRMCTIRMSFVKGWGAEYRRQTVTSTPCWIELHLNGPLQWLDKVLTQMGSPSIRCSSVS

B1: smad4, Q13485 1-552 (protein)
chain: MDNMSITNTPTSNDACLSIVHSLMCHRQGGESETFAKRAIESLVKKLKEKKDELDSLITAITTNGAHPSKCVTIQRTLDGRLQVAGRKGFPHVIYARLWRWPDLHKNELKHVKYCQYAFDLKCDSVCVNPYHYERVVSPGIDLSGLTLQSNAPSSMMVKDEYVHDFEGQPSLSTEGHSIQTIQHPPSNRASTETYSTPALLAPSESNATSTANFPNIPVASTSQPASILGGSHSEGLLQIASGPQPGQQQNGFTGQPATYHHNSTTTWTGSRTAPYTPNLPHHQNGHLQHHPPMPPHPGHYWPVHNELAFQPPISNHPAPEYWCSIAYFEMDVQVGETFKVPSSCPIVTVDGYVDPSGGDRFCLGQLSNVHRTEAIERARLHIGKGVQLECKGEGDVWVRCLSDHAVFVQSYYLDREAGRAPGDAVHKIYPSAYIKVFDLRQCHRQMQQQAATAQAAAAAQAAAVAGNIPGPGSVGGIAPAISLSAAAGIGVDDLRRLCILRMSFVKGWGPDYPRQSIKETPCWIEIHLHRALQLLDEVLHTMPIADPQPLD

Assays:
[1] = target: FoxO3 (human (endogenous in PC-3)) (UniProt O43524); test: co-IP; PC-3 cell lysates with smad3 or FoxO3 antibody overnight at 4°C, protein A/G magnetic beads 2 h at 4°C, Western blotting; cells treated with lmwCAFS, MT-lmwCAFS, MT-lmwCAFS with TGF-β3 immune depletion, or TGFBR2 knockdown and MT-lmwCAFS
[2] = target: smad3 (human (endogenous in PC-3)), P84022; test: as above; settings: remark: other sources report otherwise

Row | Molecule | binding [1] | binding [2]
1 | smad3 (from UniProt P84022 1-425) | binds | –
2 | smad4 (from UniProt Q13485 1-552) | binds | –
3 | B1 | – | binds
